# Data taken from US7129198B1, “Use of benzotriazole UV absorbers” (Ciba Specialty Chemicals Corporation, priority 1999, dated 2006).
# Experiment: Demonstration of substantivity: UV absorber taken up by human hair from aqueous solution
# Details: 10 mmol/l aqueous solution, 15 minutes
structure (smiles),measurement,setting,value
CC[N+](C)(CC)CCCNC(=O)CCc1cc(-n2nc3ccccc3n2)c(O)c(C(C)(C)C)c1 [compound of formula (109)],mg of UV absorber per g of hair,"at pH 5.5, damaged (bleached) human hair",26 (at pH 5.5; damaged hair) mg of UV absorber per g of hair
same,mg of UV absorber per g of hair,"at pH 5.5, undamaged mid-blonde human hair",2 (at pH 5.5; undamaged hair) mg of UV absorber per g of hair
same,mg of UV absorber per g of hair,"at pH 9.5, damaged (bleached) human hair",31 (at pH 9.5; damaged hair) mg of UV absorber per g of hair
same,mg of UV absorber per g of hair,"at pH 9.5, undamaged mid-blonde human hair",3 (at pH 9.5; undamaged hair) mg of UV absorber per g of hair
